Experimental data taken from patent publication US7763650B2, “Pharmaceutical compound and method” (Medipharma S.A., priority 2006, dated 2010).

Tested on: Maximal electroshock seizures
Experiment: Maximal electroshock seizure (MES) anticonvulsant test
Format: in vivo
Details: mice, ip; time of peak effect read from graphs of percentage effect against time
Procedure: In Vivo Experiments: The pharmacological tests were performed according to standard procedures provided by the Antiepileptic Drug Development (ADD) Program of the National Institute of Neurological and Communicative Disorders and Stroke (NINCDS). Anticonvulsant tests: Maximal electroshock seizures were elicited in mice by delivering a 60 Hz/50 mA electrical stimulus for 0.2 sec. via ear clip electrodes. A drop of saline solution applied on each ear before placing the electrodes ensures adequate electrical contact. In these conditions, maximal seizures are produced in virtually all normal mice. The maximal seizure typically consists of a short period of tonic flexion followed by a longer period of tonic extension of the hind limbs and a final clonic episode. Blockade of the hind limbs tonic extensor component due to the drug treatment is taken as the end point. […] Determination of the Time of Peak Effect (TPE): […] The percentages of protection or neurotoxicity are recorded and plotted against time and the TPEs are determined by visual inspection of the graphs. Estimation of the ED50s: Groups of 8 animals per dose are injected via ip. […] The percentages of protection at each dose (converted to probit) were plotted against log-doses.

| Compound | TME: Time to Maximum Effect [h] |
| --- | --- |
| CCCC(CCC)C(=O)OC1C(O)C(O)C(O)C(O)C1OC(=O)C(CCC)CCC (racemic) [Example 5, (±)-3,4-Di-O-(2-propylpentanoyl)-myo-inositol] | 0.5 |
| (±)-5,6-Di-O-(2-propylpentanoyl)-1,2:3,4-di-O-cyclohexyl-O-myo-inositol [Example 2] | 1 |
| CCCC(CCC)C(=O)OC1C(O)C(O)C(OC(=O)C(CCC)CCC)C(OC(=O)C(CCC)CCC)C1OC(=O)C(CCC)CCC (racemic) [Example 4, (±)-3,4,5,6-tetra-O-(2-propylpentanoyl)-myo-inositol] | 1 |
| CCCC(CCC)C(=O)O [Valproic acid, valproic acid, reference compound] | 0.25 |
| CCCC(CCC)C(=O)O[C@H]1[C@H](OC(=O)C(CCC)CCC)[C@@H](OC(=O)C(CCC)CCC)[C@H](OC(=O)C(CCC)CCC)[C@@H](OC(=O)C(CCC)CCC)[C@H]1OC(=O)C(CCC)CCC [Example 1, (±)1,2,3,4,5,6-hexa-O-(2-propylpentanoyl)-myo-inositol] | 2 |
